Read-outs that look alike come from different tables or passages of the source. These are yes or no findings as the source states them, for the method shown. Some binding calls cover weakened binding; strength is not graded here.
B1: OsSLR1 (protein, UniProt Q7G7J6 1-625)
chain: MKREYQEAGGSSGGGSSADMGSCKDKVMAGAAGEEEDVDELLAALGYKVRSSDMADVAQKLEQLEMAMGMGGVSAPGAADDGFVSHLATDTVHYNPSDLSSWVESMLSELNAPLPPIPPAPPAARHASTSSTVTGGGGSGFFELPAAADSSSSTYALRPISLPVVATADPSAADSARDTKRMRTGGGSTSSSSSSSSSLGGGASRGSVVEAAPPATQGAAAANAPAVPVVVVDTQEAGIRLVHALLACAEAVQQENFAAAEALVKQIPTLAASQGGAMRKVAAYFGEALARRVYRFRPADSTLLDAAFADLLHAHFYESCPYLKFAHFTANQAILEAFAGCHRVHVVDFGIKQGMQWPALLQALALRPGGPPSFRLTGVGPPQPDETDALQQVGWKLAQFAHTIRVDFQYRGLVAATLADLEPFMLQPEGEADANEEPEVIAVNSVFELHRLLAQPGALEKVLGTVHAVRPRIVTVVEQEANHNSGSFLDRFTESLHYYSTMFDSLEGGSSGQAELSPPAAGGGGGTDQVMSEVYLGRQICNVVACEGAERTERHETLGQWRNRLGRAGFEPVHLGSNAYKQASTLLALFAGGDGYRVEEKEGCLTLGWHTRPLIATSAWRVAAA

The chains behind the UniProt entries cited, without tags or fusion partners.
UniProt Q69WS3: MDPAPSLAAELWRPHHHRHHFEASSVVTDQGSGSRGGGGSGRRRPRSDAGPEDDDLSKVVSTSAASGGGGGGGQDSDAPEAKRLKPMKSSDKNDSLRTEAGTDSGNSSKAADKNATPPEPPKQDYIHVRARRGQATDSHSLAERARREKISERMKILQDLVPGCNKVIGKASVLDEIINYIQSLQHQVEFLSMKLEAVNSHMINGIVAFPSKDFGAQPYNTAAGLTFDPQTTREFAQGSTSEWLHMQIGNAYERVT
UniProt Q84T08: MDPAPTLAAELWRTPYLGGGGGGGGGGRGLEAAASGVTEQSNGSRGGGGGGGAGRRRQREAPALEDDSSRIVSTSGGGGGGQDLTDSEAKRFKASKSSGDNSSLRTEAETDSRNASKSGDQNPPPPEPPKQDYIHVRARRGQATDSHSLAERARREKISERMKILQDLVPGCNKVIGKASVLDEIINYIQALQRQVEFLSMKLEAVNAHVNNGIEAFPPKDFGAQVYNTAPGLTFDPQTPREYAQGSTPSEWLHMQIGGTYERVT

Key:
Assay in all cases: two-hybrid
[1] = target: OsbHLH094 (rice (Oryza sativa)) (UniProt Q69WS3)
[2] = target: OsbHLH089 (rice (Oryza sativa)) (UniProt Q84T08)
[3] = target: OsbHLH094 (rice (Oryza sativa)) (UniProt Q69WS3); remark: listed apart in the source
[4] = target: OsbHLH089 (rice (Oryza sativa)) (UniProt Q84T08); remark: listed apart in the source

Row | Molecule | binding [1] | binding [2] | binding [3] | binding [4]
1 | OsbHLH089 (from UniProt Q84T08 1-265) | binds | binds |  | 
2 | OsbHLH094 (from UniProt Q69WS3 1-256) | binds |  |  | 
3 | B1 |  |  | binds | binds

Reference: doi:10.1101/2024.11.24.624999
